The values that follow are results of earlier work, collected in paper PMC8593021, “Biophysical and functional characterization of the human TAS1R2 sweet taste receptor overexpressed in a HEK293S inducible cell line” (Scientific Reports, 2021).

For this series the following is noted: on a molar basis; cited from earlier work.

As to `C=C(C)C1CC=C(/C=N/O)CC1` (stereo in doubt) [Perillartine, perillartine], the Relative sweetness was 2000.

`CC1=CC(=O)NS(=O)(=O)O1` [Acesulfame-K, acesulfame-K]: the Relative sweetness is reported as 200.

For the compound `OC[C@H]1O[C@H](O[C@]2(CCl)O[C@H](CCl)[C@@H](O)[C@@H]2O)[C@H](O)[C@@H](O)[C@H]1Cl` [Sucralose, sucralose], the Relative sweetness is 600. Consider `COC(=O)[C@H](Cc1ccccc1)NC(=O)[C@H](CC(=O)O)NCCC(C)(C)C` [Neotame, neotame], for which the Relative sweetness is 11,000. Take `O=S(=O)(O)NC1CCCCC1` [Cyclamate-Na, cyclamate-Na]: the Relative sweetness was 30–50.
